These are yes or no findings as the source states them, for the method shown. Binding seen in cells or lysates may run through a third protein. Some entries that bind do so weakly or less than the wild type.
Tests used:
[1] = target: Rpn11-ProteinA tagged subunit of the proteasome (S. cerevisiae) (UniProt P43588); assay: pull-down; RP purified via Rpn11-ProteinA from caf1Δ and not4Δ cells under high salt; western blot of the purified material with anti-Rpt1 and anti-α1-7; in-gel activity on a 3-12% native gel
[2] = target: Rpn11-ProteinA tagged subunit of the proteasome (S. cerevisiae) (UniProt P43588); assay: pull-down; RP purified via Rpn11-ProteinA from wild-type and ccr4Δ cells under high salt; western blot of the purified material with anti-Rpt1 and anti-α1-7; in-gel activity on a 3-12% native gel

Sequences of proteins named here, by UniProt entry; tags and fusion partners are left off.
UniProt P43588: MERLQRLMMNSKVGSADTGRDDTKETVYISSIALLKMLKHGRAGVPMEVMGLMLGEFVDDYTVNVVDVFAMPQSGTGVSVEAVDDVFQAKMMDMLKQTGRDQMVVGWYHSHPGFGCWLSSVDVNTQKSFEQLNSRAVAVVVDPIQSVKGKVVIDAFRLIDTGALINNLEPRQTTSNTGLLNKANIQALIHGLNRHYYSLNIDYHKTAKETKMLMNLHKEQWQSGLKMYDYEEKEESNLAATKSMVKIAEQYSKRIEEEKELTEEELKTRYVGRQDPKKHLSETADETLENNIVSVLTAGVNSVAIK

binding [1]: binds | binding [2]: binds
B1: Rpt1 (protein, UniProt P33299 1-467)
chain: MPPKEDWEKYKAPLEDDDKKPDDDKIVPLTEGDIQVLKSYGAAPYAAKLKQTENDLKDIEARIKEKAGVKESDTGLAPSHLWDIMGDRQRLGEEHPLQVARCTKIIKGNGESDETTTDNNNSGNSNSNSNQQSTDADEDDEDAKYVINLKQIAKFVVGLGERVSPTDIEEGMRVGVDRSKYNIELPLPPRIDPSVTMMTVEEKPDVTYSDVGGCKDQIEKLREVVELPLLSPERFATLGIDPPKGILLYGPPGTGKTLCARAVANRTDATFIRVIGSELVQKYVGEGARMVRELFEMARTKKACIIFFDEIDAVGGARFDDGAGGDNEVQRTMLELITQLDGFDPRGNIKVMFATNRPNTLDPALLRPGRIDRKVEFSLPDLEGRANIFRIHSKSMSVERGIRWELISRLCPNSTGAELRSVCTEAGMFAIRARRKVATEKDFLKAVDKVISGYKKFSSTSRYMQYN
